Measured values from article PMC11428915.
No constants are given. Whether binding was seen depends on the method and setting. In cells and extracts the contact can be indirect. Binding can be weak; no strength is given.

Chains of the proteins cited; added tags and fusions are not shown. Lines headed by an entry give the natural chain unless they say otherwise; changes in a name come on top.
UniProt O60637: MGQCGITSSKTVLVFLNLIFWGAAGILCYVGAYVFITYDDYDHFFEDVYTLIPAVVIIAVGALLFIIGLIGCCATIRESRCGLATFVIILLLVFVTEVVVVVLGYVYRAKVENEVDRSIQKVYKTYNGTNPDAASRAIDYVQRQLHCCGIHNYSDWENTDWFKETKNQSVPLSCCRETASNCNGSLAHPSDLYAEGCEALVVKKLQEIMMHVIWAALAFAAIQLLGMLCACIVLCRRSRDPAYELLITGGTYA
UniProt P05556: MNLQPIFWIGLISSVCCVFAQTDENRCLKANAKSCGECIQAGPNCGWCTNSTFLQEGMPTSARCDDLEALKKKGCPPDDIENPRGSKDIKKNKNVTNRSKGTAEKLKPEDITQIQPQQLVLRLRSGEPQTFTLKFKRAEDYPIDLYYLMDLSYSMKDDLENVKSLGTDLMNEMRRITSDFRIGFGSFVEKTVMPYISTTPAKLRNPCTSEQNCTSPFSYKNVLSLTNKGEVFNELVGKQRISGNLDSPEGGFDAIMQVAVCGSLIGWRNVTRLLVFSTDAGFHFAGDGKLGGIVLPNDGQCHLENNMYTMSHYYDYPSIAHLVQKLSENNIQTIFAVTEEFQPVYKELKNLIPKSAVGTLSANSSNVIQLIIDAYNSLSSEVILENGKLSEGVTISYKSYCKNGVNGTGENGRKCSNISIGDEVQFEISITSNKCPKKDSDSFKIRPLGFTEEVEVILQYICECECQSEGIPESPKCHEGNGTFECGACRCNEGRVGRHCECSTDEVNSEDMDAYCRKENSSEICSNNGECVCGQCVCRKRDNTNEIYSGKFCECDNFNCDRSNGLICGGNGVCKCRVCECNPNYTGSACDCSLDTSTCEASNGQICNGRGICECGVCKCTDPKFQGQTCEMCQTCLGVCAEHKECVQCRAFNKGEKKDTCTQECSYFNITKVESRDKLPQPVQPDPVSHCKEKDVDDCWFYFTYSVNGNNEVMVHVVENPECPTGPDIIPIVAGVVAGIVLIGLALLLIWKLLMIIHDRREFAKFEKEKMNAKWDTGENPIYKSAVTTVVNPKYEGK
UniProt P62491: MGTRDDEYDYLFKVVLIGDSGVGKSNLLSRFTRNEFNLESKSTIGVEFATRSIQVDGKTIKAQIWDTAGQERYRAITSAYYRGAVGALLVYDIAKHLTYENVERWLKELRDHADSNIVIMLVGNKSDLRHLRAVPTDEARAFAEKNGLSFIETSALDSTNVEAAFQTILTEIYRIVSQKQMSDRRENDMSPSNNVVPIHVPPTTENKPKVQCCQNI

Target: TSPAN3-ΔLEL mutant (LEL domain deleted), GFP-tagged (UniProt O60637)
Experiment: co-IP; A549 cells, 48 h after transfection of wild-type GFP-TSPAN3 or TSPAN3-ΔLEL; lysates immunoprecipitated with anti-GFP antibody, western blot of the partner

Row | binding | Substance
1 | no binding | β1 integrin, endogenous in A549 cells (from UniProt P05556 21-798) (receptor)
2 | binds | Ras-related protein Rab-11a, endogenous in A549 cells (from UniProt P62491 1-216)
